Test results published in patent EP2703005A1, “Inhibitors of alpha6 Integrin/E-Cadherin Complex” (Università Degli Studi Di Torino, priority 2012, dated 2014).
These are yes or no findings as the source states them, for the method shown. In cells and extracts the contact can be indirect. Some results given as binding are weak or reduced against the parent protein; the word gives no strength. Tags and fused reporters may be left off the sequences shown.

By UniProt entry, the sequences of proteins in these tests, tags left out. Residues count along the entry.
UniProt O00159: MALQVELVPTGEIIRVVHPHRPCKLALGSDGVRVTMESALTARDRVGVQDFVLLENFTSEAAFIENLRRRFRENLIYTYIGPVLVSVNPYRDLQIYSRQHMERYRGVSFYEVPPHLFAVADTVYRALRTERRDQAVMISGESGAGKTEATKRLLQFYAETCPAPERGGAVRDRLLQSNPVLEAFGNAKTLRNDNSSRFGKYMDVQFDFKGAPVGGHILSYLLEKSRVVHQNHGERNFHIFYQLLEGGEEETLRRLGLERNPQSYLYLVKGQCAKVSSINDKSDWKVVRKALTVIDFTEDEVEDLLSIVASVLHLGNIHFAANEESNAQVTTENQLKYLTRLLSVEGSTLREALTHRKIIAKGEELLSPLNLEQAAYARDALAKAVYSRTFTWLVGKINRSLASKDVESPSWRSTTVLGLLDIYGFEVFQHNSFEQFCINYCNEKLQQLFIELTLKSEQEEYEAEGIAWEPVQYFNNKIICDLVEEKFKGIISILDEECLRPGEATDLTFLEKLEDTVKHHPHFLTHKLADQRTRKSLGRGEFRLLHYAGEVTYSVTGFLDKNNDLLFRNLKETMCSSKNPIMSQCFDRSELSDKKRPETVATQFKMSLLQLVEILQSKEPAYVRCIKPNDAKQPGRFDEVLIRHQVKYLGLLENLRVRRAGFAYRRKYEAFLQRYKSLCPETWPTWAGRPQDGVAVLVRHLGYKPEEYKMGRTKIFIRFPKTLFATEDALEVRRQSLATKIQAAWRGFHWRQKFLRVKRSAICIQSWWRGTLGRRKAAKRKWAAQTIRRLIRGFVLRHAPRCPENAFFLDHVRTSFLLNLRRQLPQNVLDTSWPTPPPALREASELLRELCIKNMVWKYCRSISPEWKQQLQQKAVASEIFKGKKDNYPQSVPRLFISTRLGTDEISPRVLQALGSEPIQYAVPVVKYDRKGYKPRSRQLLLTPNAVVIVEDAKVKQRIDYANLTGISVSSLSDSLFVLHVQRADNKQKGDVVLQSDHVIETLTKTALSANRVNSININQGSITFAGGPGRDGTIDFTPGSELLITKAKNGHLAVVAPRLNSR
UniProt O43795: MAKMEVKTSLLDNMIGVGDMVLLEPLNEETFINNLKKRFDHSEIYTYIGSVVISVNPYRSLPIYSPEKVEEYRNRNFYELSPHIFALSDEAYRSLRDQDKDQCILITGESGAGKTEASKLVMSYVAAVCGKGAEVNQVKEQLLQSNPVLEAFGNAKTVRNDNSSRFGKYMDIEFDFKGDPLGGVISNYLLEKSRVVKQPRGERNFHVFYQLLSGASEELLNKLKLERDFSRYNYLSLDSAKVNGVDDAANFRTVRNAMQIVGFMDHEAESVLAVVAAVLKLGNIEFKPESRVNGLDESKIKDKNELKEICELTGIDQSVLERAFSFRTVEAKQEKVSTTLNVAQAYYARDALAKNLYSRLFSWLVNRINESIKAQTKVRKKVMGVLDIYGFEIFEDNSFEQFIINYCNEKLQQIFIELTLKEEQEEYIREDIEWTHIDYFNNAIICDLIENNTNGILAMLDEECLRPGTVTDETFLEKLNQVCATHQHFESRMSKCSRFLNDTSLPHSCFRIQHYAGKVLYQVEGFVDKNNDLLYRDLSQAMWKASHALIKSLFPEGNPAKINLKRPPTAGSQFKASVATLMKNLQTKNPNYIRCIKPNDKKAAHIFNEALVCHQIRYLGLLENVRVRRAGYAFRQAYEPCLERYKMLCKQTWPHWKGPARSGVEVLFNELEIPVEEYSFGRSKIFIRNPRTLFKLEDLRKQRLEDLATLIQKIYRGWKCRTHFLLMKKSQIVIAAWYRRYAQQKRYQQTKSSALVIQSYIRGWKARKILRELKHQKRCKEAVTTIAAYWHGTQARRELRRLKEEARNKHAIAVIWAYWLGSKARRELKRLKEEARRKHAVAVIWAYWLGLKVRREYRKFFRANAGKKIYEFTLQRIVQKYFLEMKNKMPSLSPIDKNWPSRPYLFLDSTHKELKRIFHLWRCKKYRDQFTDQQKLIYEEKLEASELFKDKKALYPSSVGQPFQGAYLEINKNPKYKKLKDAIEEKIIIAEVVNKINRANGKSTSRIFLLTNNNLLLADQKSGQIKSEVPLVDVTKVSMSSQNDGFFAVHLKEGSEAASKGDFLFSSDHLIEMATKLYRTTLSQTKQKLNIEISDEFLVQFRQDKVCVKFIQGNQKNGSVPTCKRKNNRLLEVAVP
UniProt Q7Z406, residues 2-1995: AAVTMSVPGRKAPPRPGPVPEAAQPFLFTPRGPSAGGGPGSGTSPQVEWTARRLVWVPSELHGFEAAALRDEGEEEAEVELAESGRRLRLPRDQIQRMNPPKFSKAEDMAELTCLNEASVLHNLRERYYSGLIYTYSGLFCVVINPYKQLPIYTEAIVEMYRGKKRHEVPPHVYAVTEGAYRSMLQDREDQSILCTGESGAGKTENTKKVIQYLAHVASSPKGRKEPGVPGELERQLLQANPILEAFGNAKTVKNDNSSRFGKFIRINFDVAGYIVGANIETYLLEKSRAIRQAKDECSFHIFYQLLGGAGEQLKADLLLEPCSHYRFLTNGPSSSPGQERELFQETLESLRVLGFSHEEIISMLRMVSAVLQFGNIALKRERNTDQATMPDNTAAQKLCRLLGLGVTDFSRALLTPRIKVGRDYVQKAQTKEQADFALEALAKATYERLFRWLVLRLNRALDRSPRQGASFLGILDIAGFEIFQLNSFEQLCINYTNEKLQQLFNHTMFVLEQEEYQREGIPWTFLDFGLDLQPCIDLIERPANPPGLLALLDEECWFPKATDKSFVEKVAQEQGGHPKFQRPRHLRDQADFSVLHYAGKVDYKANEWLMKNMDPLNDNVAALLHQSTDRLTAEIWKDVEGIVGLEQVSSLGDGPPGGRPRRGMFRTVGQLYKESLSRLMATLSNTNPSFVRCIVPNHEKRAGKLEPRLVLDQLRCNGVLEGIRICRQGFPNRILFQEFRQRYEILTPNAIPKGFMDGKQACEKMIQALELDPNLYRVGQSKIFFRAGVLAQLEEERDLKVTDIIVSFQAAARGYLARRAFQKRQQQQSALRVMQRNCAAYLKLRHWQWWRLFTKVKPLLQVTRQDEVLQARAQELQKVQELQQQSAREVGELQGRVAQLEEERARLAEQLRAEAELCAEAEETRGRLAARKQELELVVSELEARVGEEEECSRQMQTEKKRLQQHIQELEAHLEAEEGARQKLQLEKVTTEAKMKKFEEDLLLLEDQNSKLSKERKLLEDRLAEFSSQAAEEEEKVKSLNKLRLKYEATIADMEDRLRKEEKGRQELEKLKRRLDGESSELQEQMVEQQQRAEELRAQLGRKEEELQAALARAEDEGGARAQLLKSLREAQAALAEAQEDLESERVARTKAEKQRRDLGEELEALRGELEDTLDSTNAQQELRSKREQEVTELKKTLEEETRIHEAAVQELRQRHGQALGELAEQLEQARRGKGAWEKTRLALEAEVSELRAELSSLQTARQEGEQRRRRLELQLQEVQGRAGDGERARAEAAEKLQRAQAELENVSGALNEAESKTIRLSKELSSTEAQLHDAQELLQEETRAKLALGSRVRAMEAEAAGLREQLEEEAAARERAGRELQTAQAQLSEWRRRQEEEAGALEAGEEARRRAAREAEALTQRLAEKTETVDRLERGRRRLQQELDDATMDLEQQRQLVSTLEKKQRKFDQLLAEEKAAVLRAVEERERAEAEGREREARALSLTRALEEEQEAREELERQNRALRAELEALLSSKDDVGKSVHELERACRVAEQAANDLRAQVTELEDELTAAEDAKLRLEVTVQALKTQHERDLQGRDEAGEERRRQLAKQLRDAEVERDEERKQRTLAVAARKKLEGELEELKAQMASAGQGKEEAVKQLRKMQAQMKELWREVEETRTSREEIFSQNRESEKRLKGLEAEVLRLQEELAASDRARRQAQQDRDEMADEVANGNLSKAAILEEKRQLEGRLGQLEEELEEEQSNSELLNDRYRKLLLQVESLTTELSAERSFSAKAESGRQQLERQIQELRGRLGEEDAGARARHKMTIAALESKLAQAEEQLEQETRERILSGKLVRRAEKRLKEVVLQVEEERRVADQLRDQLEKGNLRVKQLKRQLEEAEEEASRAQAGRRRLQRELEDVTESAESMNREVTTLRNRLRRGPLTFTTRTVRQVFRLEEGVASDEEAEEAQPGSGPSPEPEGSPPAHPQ

Assays:
[1] = molecular target: T1, NADPH-carbonyl reductase (human) (UniProt P16152); assay: GST pull-down from NCI-H630 lysate (HepG2 lysate as control), LC-MS/MS; MASCOT score 74
T1 sequence (looked up): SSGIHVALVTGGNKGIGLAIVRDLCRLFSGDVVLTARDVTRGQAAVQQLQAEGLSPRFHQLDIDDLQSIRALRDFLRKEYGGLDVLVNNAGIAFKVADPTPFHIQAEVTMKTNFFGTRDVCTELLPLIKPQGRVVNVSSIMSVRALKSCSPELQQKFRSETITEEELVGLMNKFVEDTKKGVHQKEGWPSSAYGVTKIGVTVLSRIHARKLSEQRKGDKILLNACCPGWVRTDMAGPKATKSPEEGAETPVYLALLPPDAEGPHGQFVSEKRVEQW

annexin A4 (human) = molecular target: T2, annexin A4 (human) (UniProt P09525); assay: GST pull-down from NCI-H630 lysate (HepG2 lysate as control), LC-MS/MS; MASCOT score 237
T2 sequence (looked up): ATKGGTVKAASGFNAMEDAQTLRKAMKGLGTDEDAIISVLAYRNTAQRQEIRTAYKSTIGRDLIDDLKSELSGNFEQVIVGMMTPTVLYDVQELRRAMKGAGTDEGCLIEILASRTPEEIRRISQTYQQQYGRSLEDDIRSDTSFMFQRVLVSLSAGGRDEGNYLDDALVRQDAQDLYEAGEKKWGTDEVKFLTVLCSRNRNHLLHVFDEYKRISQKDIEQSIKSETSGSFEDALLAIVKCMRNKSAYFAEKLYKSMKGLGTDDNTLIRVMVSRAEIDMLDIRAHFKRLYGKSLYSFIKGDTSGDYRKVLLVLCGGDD

[2] = molecular target: T3, myosin le (Myosin Ic) (human) (UniProt Q12965); assay: GST pull-down from NCI-H630 lysate (HepG2 lysate as control), LC-MS/MS; MASCOT score 583
T3 sequence (looked up): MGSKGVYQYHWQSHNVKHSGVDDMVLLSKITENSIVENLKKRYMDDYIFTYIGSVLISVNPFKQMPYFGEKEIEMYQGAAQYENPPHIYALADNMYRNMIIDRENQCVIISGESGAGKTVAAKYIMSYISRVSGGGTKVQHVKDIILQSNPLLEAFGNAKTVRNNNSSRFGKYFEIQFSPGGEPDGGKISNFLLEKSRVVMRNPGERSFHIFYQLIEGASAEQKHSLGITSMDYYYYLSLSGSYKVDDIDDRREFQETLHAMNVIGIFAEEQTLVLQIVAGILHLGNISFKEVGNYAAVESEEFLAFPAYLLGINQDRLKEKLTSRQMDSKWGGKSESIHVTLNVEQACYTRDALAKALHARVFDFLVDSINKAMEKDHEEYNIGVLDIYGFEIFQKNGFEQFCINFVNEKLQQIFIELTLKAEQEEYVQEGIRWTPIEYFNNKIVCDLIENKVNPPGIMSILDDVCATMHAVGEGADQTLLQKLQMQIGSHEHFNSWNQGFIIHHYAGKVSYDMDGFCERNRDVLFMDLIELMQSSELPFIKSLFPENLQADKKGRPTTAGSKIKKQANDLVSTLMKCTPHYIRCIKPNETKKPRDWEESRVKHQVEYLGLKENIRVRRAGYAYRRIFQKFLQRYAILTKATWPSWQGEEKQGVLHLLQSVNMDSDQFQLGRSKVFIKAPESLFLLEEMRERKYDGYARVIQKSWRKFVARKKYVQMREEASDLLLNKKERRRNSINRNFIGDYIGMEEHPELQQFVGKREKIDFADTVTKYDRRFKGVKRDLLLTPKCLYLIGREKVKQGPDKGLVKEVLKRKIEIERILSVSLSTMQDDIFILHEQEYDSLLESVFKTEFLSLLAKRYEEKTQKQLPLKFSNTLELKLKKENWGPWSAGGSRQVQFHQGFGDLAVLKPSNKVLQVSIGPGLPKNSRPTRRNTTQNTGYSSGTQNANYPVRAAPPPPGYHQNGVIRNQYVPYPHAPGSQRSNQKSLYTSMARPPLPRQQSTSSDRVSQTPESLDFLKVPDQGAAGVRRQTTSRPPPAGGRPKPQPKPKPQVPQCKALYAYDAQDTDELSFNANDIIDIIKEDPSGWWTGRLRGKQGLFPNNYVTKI

[3] = molecular target: myosin Ic (Myosin Iβ) (human) (UniProt O00159); assay: GST pull-down from NCI-H630 lysate (HepG2 lysate as control), LC-MS/MS; MASCOT score 908
[4] = molecular target: myosin Ib (Myosin Iα) (human) (UniProt O43795); assay: GST pull-down from NCI-H630 lysate (HepG2 lysate as control), LC-MS/MS; MASCOT score 1252
myosin-14 (human) = myosin-14 (human) (UniProt Q7Z406); assay: GST pull-down from NCI-H630 lysate (HepG2 lysate as control), LC-MS/MS; MASCOT score 2408

Measured: binding

B1: …-GST (peptide, not shown: a dimerising Fc or GST)
chain: CGIYRLRSC
binds: [1] | annexin A4 (human) | [2] | [3] | [4] | myosin-14 (human)
